PubChem BioAssay AID1259274 – Sanger Institute | 2017
Here is one part, drawn at random, of 794 reagents. 11 of all reagents (1.4%) count as active. 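Calls rest on knock-down without drug only; synergy scores with anchor drugs were not used for the essential call.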 A number with no mark means an inactive call. No viability above 1 is reported: the scale is capped. Reagent sequences are not shown. The record does not give: the amount of reagent, the time to read-out.

Purpose: 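siRNA screen of kinases for partners that act in synergy with targeted drugs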 (primary screen)
Cell system: human RKO colorectal cancer cells
Reagent: siRNA pool against human genes
Conditions: anchor drugs BYL719 at 1 µM, cetuximab at 5 µg/ml or trametinib at 10 nM; DMSO vehicle as the no-drug arm
Measurement: 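Viability of cells versus control pool 2 (non-targeting) averaged across replicates; knock-down-only robust z-score; for every anchor drug (BYL719, cetuximab, trametinib) a synergy score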
Direction: viability z-score, siRNA alone: higher = more viable cells; low values mean essential gene; viability, siRNA alone, vehicle: higher = more viable cells; synergy score with BYL719 and synergy score with Trametinib and synergy score with Cetuximab: higher = stronger combined killing with the drug
Active means: 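Essential when the robust viability z-score with siRNA only falls below -3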
Calls: active = essential when knocked down alone; inactive = no change alone

gene	viability z-score, siRNA alone	viability, siRNA alone, vehicle (fraction of control)	synergy score with BYL719	synergy score with Trametinib	synergy score with Cetuximab
NAGK	-1.47	0.772	-0.0718	-0.057	-0.00736
CDKN2B	-0.225	0.879	-0.0503	-0.298	-0.121
ADK	0.235	0.918	-0.117	-0.23	0.0797
RFK	-0.41	0.863	-0.0872	-0.191	-0.053
MATK	0.0828	0.905	-0.0523	-0.178	-0.0892
ADCK5	0.276	0.922	-0.0713	-0.234	-0.0784
CDK2	-0.16	0.884	-0.14	-0.218	-0.116
NME7	0.22	0.917	-0.0243	-0.286	-0.0831
CDK12	-0.301	0.872	-0.045	-0.21	-0.0313
IP6K3	-0.953	0.816	-0.0576	-0.124	-0.0943
PRKCH	-0.426	0.862	0.0682	0.0738	0.0152
TGFBR2	-0.231	0.878	-0.0545	0.0457	-0.00623
NRAS	0.763	0.963	-0.054	-0.213	-0.0326
MAP3K19	-0.78	0.831	-0.0494	-0.139	-0.102
NIM1K	0.0819	0.905	-0.0869	-0.122	-0.095
MAP3K3	-0.425	0.862	-0.108	-0.175	-0.0752
PIP4K2A	0.452	0.937	-0.118	-0.171	-0.00514
BCOR	1.1	0.992	0.11	0.0943	0.0693
MARK3	1.19	1	0.0264	-0.225	0.185
PANK2	0.142	0.91	-0.0197	-0.216	-0.0102
PINK1	-0.402	0.864	-0.049	-0.16	-0.136
AKAP9	0.56	0.946	-0.0556	-0.144	0.0432
PTK2B	-0.541	0.852	0.0331	-0.208	-0.0565
TAOK1	-0.161	0.884	-0.123	-0.211	-0.0813
TBK1	1.19	1	0.0814	-0.319	0.133
CDC42BPA	-1.58	0.762	-0.166	-0.161	-0.101
AK2	-0.206	0.88	-0.102	-0.147	0.0101
STK10	1.19	1	-0.0833	-0.056	0
PMVK	-0.0764	0.891	-0.0566	-0.219	-0.0822
RSKR	0.494	0.94	-0.0876	-0.123	-0.0436
ETNK1	1.19	1	0.041	-0.23	0
APC	0.6	0.949	-0.0292	-0.00186	-0.0315
BRSK1	0.899	0.975	-0.108	-0.211	0.0404
PSKH1	1.17	0.998	0.000997	-0.297	0.0838
PIP5K1C	0.755	0.963	0.0229	-0.133	0.0551
FXR1	-0.744	0.834	-0.126	-0.161	-0.039
CAMK2N1	0.182	0.914	-0.0265	-0.119	0.00183
AAK1	-1.15	0.8	0.0461	-0.194	-0.0701
RAD21	-0.907	0.82	0.0502	-0.0425	-0.0237
BMX	0.388	0.931	-0.228	-0.419	0.0368
BUB1B	-0.325	0.87	0.00324	-0.0977	-0.0182
MET	0.311	0.925	0.00363	-0.0394	0.0275
OXSR1	0.393	0.932	-0.0175	-0.163	-0.0529
FGR	0.532	0.944	-0.0829	-0.209	-0.00321
PRKG2	1.19	1	-0.0112	-0.0334	0
FN3K	-0.0098	0.897	-0.0791	-0.129	-0.016
TGFBR3	0.155	0.911	-0.0625	-0.295	-0.0887
MED12	-2.49	0.685	-0.0499	-0.0476	-0.0956
CSNK1G1	-3.27 (active)	0.618	-0.0325	-0.133	-0.21
CALM1	0.744	0.962	-0.0621	-0.0281	-0.0382
CIT	-0.548	0.851	-0.0283	0.0165	-0.0767
FGFR4	0.23	0.918	-0.0993	-0.268	-0.0823
MAPK14	-1.14	0.801	-0.273	-0.135	-0.199
UCKL1	0.555	0.946	-0.0365	-0.238	-0.0544
CUL1	-0.921	0.819	-0.117	-0.148	0.0127
HASPIN	-0.909	0.82	-0.0891	-0.0678	-0.062
CDADC1	0.153	0.911	-0.0617	-0.22	-0.0448
IKBKG	-0.128	0.887	-0.0916	-0.0601	-0.0638
CHEK2	0.538	0.944	-0.0613	-0.137	0.00151
ACVRL1	-0.57	0.849	-0.0445	-0.196	-0.127
EFNA5	1.19	1	0.00521	-0.262	0
TLK1	0.554	0.945	0.0328	-0.0616	-0.0129
PFKFB4	1.19	1	0.124	-0.154	0.00205

A stretch from the list above, as a working copy:
gene	viability z-score, siRNA alone	viability, siRNA alone, vehicle (fraction of control)	synergy score with BYL719	synergy score with Trametinib	synergy score with Cetuximab
PIP4K2A	0.452	0.937	-0.118	-0.171	-0.00514
BCOR	1.1	0.992	0.11	0.0943	0.0693
MARK3	1.19	1	0.0264	-0.225	0.185
PANK2	0.142	0.91	-0.0197	-0.216	-0.0102
PINK1	-0.402	0.864	-0.049	-0.16	-0.136
AKAP9	0.56	0.946	-0.0556	-0.144	0.0432
PTK2B	-0.541	0.852	0.0331	-0.208	-0.0565
